Results reported in patent US20070270359A1, “Nucleic Acid-Based Compounds and Methods of Use Thereof” (priority 2001, published 2007).
Some of these results come from one statement about several compounds together.

Test system: HBV
Test: HBV-infected 2.2.15 cells treated in vitro, extracellular (virion) HBV DNA levels
Assay type: cell-based, Hepatitis B virus (HBV)
Conditions: HBV-infected human cells (2.2.15 cells), called significant

SMILES: Cc1cn([C@H]2CC(OP(=O)(S)OC[C@H]3O[C@@H](n4cnc5c(N)ncnc54)CC3O)[C@@H](COP(=O)(S)OC3C[C@H](n4ccc(N)nc4=O)O[C@@H]3CO)O2)c(=O)[nH]c1=O (stereo partly shown) [compound 1]
- depressions in extracellular (virion) HBV DNA levels relative to the control: greater than 2 fold
